From article PMC7819943, “Rice protein-binding microarrays: a tool to detect cis-acting elements near promoter regions in rice”
This is one part of the list.

Each sequence was assayed against T1, OsSMF1 (Oryza sativa, UniProt Q6ZLB0 1-436) (assay: protein-binding microarray (RPBM); PBS, 2% BSA, 51.3 ng/ul salmon testes DNA, 50 uM zinc acetate, 200 nM TF, 25 C, 1 h; high values mean tight binding). Settings: protein: recombinant; tags: N-terminal polyhistidine and DsRed monomer fusion (pET32a); chain copies: 2; label: CyDye5-dUTP incorporated in the synthesized complementary strand; 3' TTTTT single-stranded linker to array surface; dsDNA, one strand shown.
T1 sequence: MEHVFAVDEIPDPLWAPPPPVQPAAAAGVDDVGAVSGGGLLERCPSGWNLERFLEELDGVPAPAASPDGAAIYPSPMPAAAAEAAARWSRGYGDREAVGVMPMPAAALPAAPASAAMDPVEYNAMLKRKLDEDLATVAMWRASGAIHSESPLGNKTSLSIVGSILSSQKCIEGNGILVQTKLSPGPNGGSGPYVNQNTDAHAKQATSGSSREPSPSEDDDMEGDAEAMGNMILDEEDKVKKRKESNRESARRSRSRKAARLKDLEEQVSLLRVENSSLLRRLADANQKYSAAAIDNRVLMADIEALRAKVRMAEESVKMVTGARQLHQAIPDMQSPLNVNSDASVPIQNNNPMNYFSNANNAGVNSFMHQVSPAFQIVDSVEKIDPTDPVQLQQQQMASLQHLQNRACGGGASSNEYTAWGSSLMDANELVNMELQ
In short: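 Binding signal is reported as fluorescence intensity per feature (arbitrary units) from an Axon 4000B scanner. Incubation used 200 nM of each Ni–NTA-purified, N-terminally polyhistidine- and DsRed-fused transcription factor from E. coli BL21-CodonPlus on a double-stranded custom Agilent array for 1 h at 25 °C, with 50 µM zinc acetate in the buffer, followed by washing.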

Sequence	binding signal
AGAGAGCCGAGCTAACGACCTCATCGCTGACGCCACCGCACGGAGTCACCTAGTGCAG	5150 fluorescence intensity (a.u.)
CATTTCACTGATCCATGGAAGTTTGCGCGTGGTAGATCATCGGAGTCACCTAGTGCAG	33800 fluorescence intensity (a.u.)
TTGGTCACTGCTCACACTGACCAGTGAGTCAGTGACCATACGGAGTCACCTAGTGCAG	15200 fluorescence intensity (a.u.)
CTTGTTTGCCAAGAATAATTGGGAAGAGGAATGAATACAACGGAGTCACCTAGTGCAG	28600 fluorescence intensity (a.u.)
GTAGATGCACCCCTGGAAAACCCAGGTAATTACGAACTAGCGGAGTCACCTAGTGCAG	3850 fluorescence intensity (a.u.)
AGCCTAGGAGGAGATGTGACCTCACAGTCAGGTGTCATCGCGGAGTCACCTAGTGCAG	3660 fluorescence intensity (a.u.)
CCTTCCCCGCCAGCCGCCGGCCACGCCGGCTCTCCTCCCCCGGAGTCACCTAGTGCAG	3480 fluorescence intensity (a.u.)
TTTTGAGCCTAGTTAGTCCATGATTAGCCATAAATGCTACCGGAGTCACCTAGTGCAG	4540 fluorescence intensity (a.u.)
CTAACAAAGCCACAGTATGCTCACACGTGTACACATCTCCCGGAGTCACCTAGTGCAG	8120 fluorescence intensity (a.u.)
CGCCGCCGTGGATCCGCCTCCCCTCCGCGCGCGCATCCCGCGGAGTCACCTAGTGCAG	3390 fluorescence intensity (a.u.)
CGTCGTCCCCGACGAGCTCCTGACCGCGCCGCCGTCCGTCCGGAGTCACCTAGTGCAG	3380 fluorescence intensity (a.u.)
CACTCTTGAGTTAAGTATGACTTGTGTGCTGCAGCCAAGCCGGAGTCACCTAGTGCAG	3530 fluorescence intensity (a.u.)
CCAAGGGTGGGGCCTCTCGTCGTCTCGTCTCCTCTCGTCTCGGAGTCACCTAGTGCAG	3190 fluorescence intensity (a.u.)
AATTCCTCTCTCTCTCTCCCCTCCCATGGCGTCACTGTCGCGGAGTCACCTAGTGCAG	6120 fluorescence intensity (a.u.)
GGAGTTTGTGATAACTCGCACGGCCTATGCGTACGTAGCACGGAGTCACCTAGTGCAG	4680 fluorescence intensity (a.u.)
AAAGTTGTAAAAGATCACACGTATCATGATATGTGGCACCCGGAGTCACCTAGTGCAG	4850 fluorescence intensity (a.u.)
CCGCATGATGTCGTCGTGTATACGGCTATGCACTTGTGTCCGGAGTCACCTAGTGCAG	3840 fluorescence intensity (a.u.)
TATACAACAATTGTGCTTTGTCTGCAGCTCCGTCACTGAACGGAGTCACCTAGTGCAG	3630 fluorescence intensity (a.u.)
AGCACGGACTCCAAAACGTAATGTGTGTATGACACGTGCGCGGAGTCACCTAGTGCAG	8730 fluorescence intensity (a.u.)
ATAAGAAAACAAACGTACTATATGATGCGACACGTTGTAGCGGAGTCACCTAGTGCAG	3220 fluorescence intensity (a.u.)
CCACCATGCCGTCACCATCCCAGCCGTCCTCCTCCTCCTCCGGAGTCACCTAGTGCAG	4840 fluorescence intensity (a.u.)

Pulled one by one from the entries so far, 7 records:
Sequence	binding signal
AGCACGGACTCCAAAACGTAATGTGTGTATGACACGTGCGCGGAGTCACCTAGTGCAG	8730 fluorescence intensity (a.u.)
AATTCCTCTCTCTCTCTCCCCTCCCATGGCGTCACTGTCGCGGAGTCACCTAGTGCAG	6120 fluorescence intensity (a.u.)
CCTTCCCCGCCAGCCGCCGGCCACGCCGGCTCTCCTCCCCCGGAGTCACCTAGTGCAG	3480 fluorescence intensity (a.u.)
AGAGAGCCGAGCTAACGACCTCATCGCTGACGCCACCGCACGGAGTCACCTAGTGCAG	5150 fluorescence intensity (a.u.)
AGCCTAGGAGGAGATGTGACCTCACAGTCAGGTGTCATCGCGGAGTCACCTAGTGCAG	3660 fluorescence intensity (a.u.)
CGCCGCCGTGGATCCGCCTCCCCTCCGCGCGCGCATCCCGCGGAGTCACCTAGTGCAG	3390 fluorescence intensity (a.u.)
AAAGTTGTAAAAGATCACACGTATCATGATATGTGGCACCCGGAGTCACCTAGTGCAG	4850 fluorescence intensity (a.u.)

Continued.

Sequence	binding signal
CGATCGATCGGAACGCGCGCGGCGCTCCACGGCCATGTCCCGGAGTCACCTAGTGCAG	3470 fluorescence intensity (a.u.)
CACGGACGCAAGGGGCCTGCTAAGCCTCTACAACGCAGCGCGGAGTCACCTAGTGCAG	41800 fluorescence intensity (a.u.)
GAAACCGAGGTAATTTCGTCGAACACCTTGATGACGTCCACGGAGTCACCTAGTGCAG	4350 fluorescence intensity (a.u.)
GCTGTGCCGTGGGGCCGAGGTGACGTGTGGATGCTGACTTCGGAGTCACCTAGTGCAG	12000 fluorescence intensity (a.u.)
CAGAGGCGGTCAAGTGTGGTGCGGTGCGATGGCAGCGGGGCGGAGTCACCTAGTGCAG	3940 fluorescence intensity (a.u.)
GGGCCAATCTAGTTGTCAACTTCTACTACTGCTAGGAGGACGGAGTCACCTAGTGCAG	3410 fluorescence intensity (a.u.)
GCGCCCTCCTCCTGCCACGTCGGTTCGCGTGCGCCACGGTCGGAGTCACCTAGTGCAG	19500 fluorescence intensity (a.u.)
CGCCACGCTTGCCTTCATCACCCAGACACGCGCGTCCCATCGGAGTCACCTAGTGCAG	3430 fluorescence intensity (a.u.)
GAGGCGGGTGATAGCGCGGTGGGGCGGTGGCGGCGGTGGACGGAGTCACCTAGTGCAG	3290 fluorescence intensity (a.u.)
TACTATTAAACCGTATGTGACTAATAATCAAGCTGAGTATCGGAGTCACCTAGTGCAG	3320 fluorescence intensity (a.u.)
AGAAGGCAATGAAAGAAGATTGCTGACTAGGATTGTTGGCCGGAGTCACCTAGTGCAG	21600 fluorescence intensity (a.u.)
CATGGTGCGGGCCAGCTCAGCTGTGCACGTGGCATGCCACCGGAGTCACCTAGTGCAG	17200 fluorescence intensity (a.u.)
TTATGTACTAATGACTCATCATGTTTTACATGTATTCTCTCGGAGTCACCTAGTGCAG	25900 fluorescence intensity (a.u.)
TGATTTGACGCTGACTATTATATAGATAGTCCCTCACGTTCGGAGTCACCTAGTGCAG	3170 fluorescence intensity (a.u.)
TTGTCGTACTCCAGTACTCCACTATCGCTGCCACGACCATCGGAGTCACCTAGTGCAG	3160 fluorescence intensity (a.u.)
CCCCACAACCCCGCATCGTCATCACCACCACCACTCCTCGCGGAGTCACCTAGTGCAG	3600 fluorescence intensity (a.u.)
TATGATTTTAAATTCGTCATACTCTAGTTAGCCTAGAAAACGGAGTCACCTAGTGCAG	3430 fluorescence intensity (a.u.)
TTATGCGCTAATCCACTCCAGATCACGCCGCTAATCCTTACGGAGTCACCTAGTGCAG	3540 fluorescence intensity (a.u.)
CTTATCGAGCTGACGGCCAGGTACCCGCCGTGGGATGACACGGAGTCACCTAGTGCAG	4060 fluorescence intensity (a.u.)
CGTCCACGTGCTTCCTAAGATCTGACTCCTCTTGCATCTGCGGAGTCACCTAGTGCAG	4640 fluorescence intensity (a.u.)
GTCTAAAATATTGGGTCCACCAATTTAAGTGAAAATCGACCGGAGTCACCTAGTGCAG	24600 fluorescence intensity (a.u.)

Sequence	binding signal
GGTTTCTTGATCAGAACTCCACTTAGAGCAACTTCAACAGCGGAGTCACCTAGTGCAG	3320 fluorescence intensity (a.u.)
ATACCACTGGAGTGTCGAGACAGCTGCCTGCACGCCACTGCGGAGTCACCTAGTGCAG	3470 fluorescence intensity (a.u.)
AACGGAGGCAAGAACTACCTCGCCGTGGACACGTCCGGCACGGAGTCACCTAGTGCAG	5440 fluorescence intensity (a.u.)
CAAAATTAGTCAAGCACATGAACAGTCAGCATGGCCGTGCCGGAGTCACCTAGTGCAG	8340 fluorescence intensity (a.u.)
GGATAACACCAACCAACGAGTCCACGTCGTCTCGTCTCCCCGGAGTCACCTAGTGCAG	11200 fluorescence intensity (a.u.)
AATTATAAAATATTGTTCATAATGTGACATGCTAGCGATCCGGAGTCACCTAGTGCAG	3410 fluorescence intensity (a.u.)
CATCCTGATCCACATGTCATTGACTCACGTGGGTACTACACGGAGTCACCTAGTGCAG	5200 fluorescence intensity (a.u.)
TGGCAGTAAAACACCACGTGCTGGAACGTATGGCATATGGCGGAGTCACCTAGTGCAG	3290 fluorescence intensity (a.u.)
GCTTTCCGCCGCAGTCTGCCCCTCTGCCACCGGGCCCCACCGGAGTCACCTAGTGCAG	31600 fluorescence intensity (a.u.)
ATCAGTCCTTCCCATCCTCTGTTAGCCTCGCGTGACGCCCCGGAGTCACCTAGTGCAG	3770 fluorescence intensity (a.u.)
AAGCTAGCACACTGGTTATAGCACGTGGTATTTGTTCTCACGGAGTCACCTAGTGCAG	5280 fluorescence intensity (a.u.)
TTCGCAAAACAAAATTTTCACCTATCACATCGAATGTTTGCGGAGTCACCTAGTGCAG	3270 fluorescence intensity (a.u.)
CGGTTAGGTGCGCCGGCCACCAGCCAACCACCTGACGCGGCGGAGTCACCTAGTGCAG	7490 fluorescence intensity (a.u.)
GTGCGGCACAACACAATTGTTTCCTTTCCTTTTCTTTCTCCGGAGTCACCTAGTGCAG	19600 fluorescence intensity (a.u.)
AGCTTCGTGCGGACGCGGCCGCCGGGCTGTAGCTGCAACTCGGAGTCACCTAGTGCAG	3460 fluorescence intensity (a.u.)
AATTCAATATAATCCCATGGCGTCAGCTTGATACTGCTCCCGGAGTCACCTAGTGCAG	3560 fluorescence intensity (a.u.)
TCGACCCACCGTCTGCCACGTCAGCTTGCCGCCCACCAATCGGAGTCACCTAGTGCAG	28900 fluorescence intensity (a.u.)
ACTTCCATTTGTTCCACGTCACCGCCCTCCCCAATATCTACGGAGTCACCTAGTGCAG	16000 fluorescence intensity (a.u.)
CACACATGAATACACAATCATTAACACAAACGGCGGCGACCGGAGTCACCTAGTGCAG	26200 fluorescence intensity (a.u.)
GTGGGCTTAGACGGCCCAGTCATGACCCTTTCATTTCGTGCGGAGTCACCTAGTGCAG	3440 fluorescence intensity (a.u.)
TGGCGTTGATGTGGCATGCCACACAGATATGATGTGGCATCGGAGTCACCTAGTGCAG	11000 fluorescence intensity (a.u.)

Sequence	binding signal
TTTTCTGCCTCTCATGTCATCATCAACTCGCCCATAACTTCGGAGTCACCTAGTGCAG	18500 fluorescence intensity (a.u.)
GCAAAATCCACACGATACCCTCGTGTCGTGCCTACCTTGGCGGAGTCACCTAGTGCAG	4150 fluorescence intensity (a.u.)
TAGCATTAACACATTCCGTTGGCAGTTGGCGGCTGTACGGCGGAGTCACCTAGTGCAG	16700 fluorescence intensity (a.u.)
CTCCCCTTCTCCCGTCGACGCGGGTGACGACCTCTCCCCTCGGAGTCACCTAGTGCAG	5390 fluorescence intensity (a.u.)
ATGACCTTAATTTACCTATATAAACCCAGGCCACGTCAGCCGGAGTCACCTAGTGCAG	36400 fluorescence intensity (a.u.)
TAGGGAATATGGGCAACCGATGACTTGGAGGAGGCAGCTTCGGAGTCACCTAGTGCAG	29800 fluorescence intensity (a.u.)
GGATGAAGGAAAGAGAAAATGACAATTTGGTCCCAAACATCGGAGTCACCTAGTGCAG	26000 fluorescence intensity (a.u.)
GCTGCTTGGCCCAAAACCAAACGCCACGTGCCCACGGCCTCGGAGTCACCTAGTGCAG	4490 fluorescence intensity (a.u.)
GCGATCATGTTGTGCTAATCGGTATAATTAGTGACCCTAACGGAGTCACCTAGTGCAG	34500 fluorescence intensity (a.u.)
ATTACTCGATTGGTTAAGAAAGCGAAGAGCTTTGCCCCAACGGAGTCACCTAGTGCAG	15600 fluorescence intensity (a.u.)
AAAGGACGGACAGTTTCCTGCGCAAATTCCACGTTCCACCCGGAGTCACCTAGTGCAG	3460 fluorescence intensity (a.u.)
CTGCAGCACTGTGACCCGATTCGATTCCTTTGTTCTCCCCCGGAGTCACCTAGTGCAG	5010 fluorescence intensity (a.u.)
GAATCGATATGGCGGTGGCGCGGTGCTAGGGTTCTCCTCGCGGAGTCACCTAGTGCAG	13300 fluorescence intensity (a.u.)
GCACCTCGTTAGGCTTCATGGTCATGGCTCGTCGCTGACGCGGAGTCACCTAGTGCAG	6120 fluorescence intensity (a.u.)
CAATTTGGCAGCCGTCAAACACTGATGTGTCACACACATGCGGAGTCACCTAGTGCAG	5240 fluorescence intensity (a.u.)
AAGGTGAAATGCTGGTTGTGATGTCATCTGCAGATTCAGCCGGAGTCACCTAGTGCAG	6530 fluorescence intensity (a.u.)
GCTGCCAACCCGAGTCACGAGACCTCATCTCTCCTCAATCCGGAGTCACCTAGTGCAG	3220 fluorescence intensity (a.u.)
TCTTGACATCCGGAATCATCACGCTCTTCCCAATCGAGGTCGGAGTCACCTAGTGCAG	3680 fluorescence intensity (a.u.)
TGGCGCCTCTCACCGCCACGTCGCCGCCGGCGAGGTGAAACGGAGTCACCTAGTGCAG	20800 fluorescence intensity (a.u.)
CACCGACCGCCGTCGCACGTTCGTCTCCACGTTCGTCGTTCGGAGTCACCTAGTGCAG	3380 fluorescence intensity (a.u.)
AAACATTTTGAGCCAAGTCCATGCATCTCTCTTGGTCTTGCGGAGTCACCTAGTGCAG	4500 fluorescence intensity (a.u.)
